From the supplement of paper PMC10470496
Where a name gives a salt, the structure may show the parent alone. Some of the results follow. Single values are uncertain, as repeats are few or missing.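 Three clinical Candida auris isolates (clades III, IV and I) from the CDC resistance isolate bank were grown in RPMI-1640 at 35°C. Growth was background-corrected OD600 relative to same-plate vehicle-only wells. Hits required over 50% inhibition in at least two strains and a plate-corrected B-score above 0.1.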

Columns and labels:
Test in all cases: growth relative to vehicle control (OD600 ratio) (fraction); higher = less inhibition
Conditions in all cases: 24 h
C. auris AR-384 = test system: C. auris AR-384
C. auris AR-386 = test system: C. auris AR-386
C. auris AR-387 = test system: C. auris AR-387

SMILES | growth (C. auris AR-384; 1 µM) | growth (C. auris AR-384; 10 µM) | growth (C. auris AR-386; 1 µM) | growth (C. auris AR-386; 10 µM) | growth (C. auris AR-387; 1 µM) | growth (C. auris AR-387; 10 µM)
C[C@@H]1C/C=C/C=C/C=C/C=C/[C@H](O[C@@H]2O[C@H](C)[C@@H](O)[C@H](N)[C@@H]2O)C[C@@H]2O[C@](O)(C[C@@H](O)C[C@H]3O[C@@H]3/C=C/C(=O)O1)C[C@H](O)[C@H]2C(=O)O [Natamycin] | 1.04 | 1.19 | 1.28 | 0.93 | 0.87 | 0.91
O=C(O[C@H]1CN2CCC1CC2)N1CCc2ccccc2[C@@H]1c1ccccc1 [Solifenacin succinate] | 0.87 | 1.02 | 1.08 | 0.81 | 0.86 | 0.99
O=C(C1CCCCC1)N1CC(=O)N2CCc3ccccc3C2C1 (stereo not drawn) [Praziquantel] | 0.93 | 0.67 | 0.8 | 0.76 | 0.85 | 0.77
O=S(=O)(O)CCCS(=O)(=O)O [Eprodisate disodium] | 1.22 | 1.03 | 1.1 | 1.13 | 0.81 | 1.07
COCCCOc1cc(C[C@@H](C[C@H](N)[C@@H](O)C[C@H](C(=O)NCC(C)(C)C(N)=O)C(C)C)C(C)C)ccc1OC [Aliskiren Hemifumarate] | 0.77 | 0.82 | 1 | 0.95 | 1.03 | 0.95
CC(C)C[C@H](NC(=O)CNC(=O)c1cc(Cl)ccc1Cl)B(O)O [Ixazomib (MLN2238)] | 0.94 | 1.07 | 0.81 | 1.07 | 0.72 | 1.1
COc1cc2c(Oc3ccc(NC(=O)C4(C(=O)Nc5ccc(F)cc5)CC4)cc3F)ccnc2cc1OCCCN1CCOCC1 | 1.06 | 1.29 | 1.22 | 0.99 | 1.11 | 1.29
Nc1nc(N)nc(-c2cc(Cl)ccc2Cl)n1 [Irsogladine] | 0.94 | 0.89 | 0.7 | 0.79 | 0.9 | 0.86
COc1c(N2C[C@@H]3CCCN[C@@H]3C2)c(F)cc2c(=O)c(C(=O)O)cn(C3CC3)c12 [Moxifloxacin HCl] | 0.68 | 0.74 | 0.57 | 0.77 | 0.95 | 0.83
CC[C@H]1OC(=O)[C@H](C)[C@@H](O[C@H]2C[C@@](C)(OC)[C@@H](O)[C@H](C)O2)[C@H](C)[C@@H](O[C@@H]2O[C@H](C)C[C@H](N(C)C)[C@H]2O)[C@](C)(O)C[C@@H](C)CN(C)[C@H](C)[C@@H](O)[C@]1(C)O [Azithromycin Dihydrate] | 0.93 | 0.79 | 0.93 | 0.86 | 0.63 | 0.86
C[C@@H](c1ncncc1F)[C@](O)(Cn1cncn1)c1ccc(F)cc1F [Voriconazole] | 0.36 | 0.29 | 0.62 | 0.45 | 0.04 | 0.02
Cc1ccc(C(=O)C(C)CN2CCCCC2)cc1 (stereo not drawn) [Tolperisone HCl] | 0.76 | 0.78 | 0.77 | 0.52 | 0.56 | 0.71
CCOc1ccc(NC(=O)CC(C)O)cc1 (stereo not drawn) [Bucetin] | 0.87 | 0.82 | 0.92 | 0.81 | 0.69 | 1.04
CN[C@@H]1[C@H](O)[C@H](NC)[C@H]2O[C@@]3(O)C(=O)C[C@@H](C)O[C@H]3O[C@@H]2[C@H]1O [Spectinomycin 2HCl] | 0.76 | 0.59 | 0.59 | 0.68 | 0.67 | 0.54
COc1ccc(CC(C)NCC(O)c2ccc(O)c(NC=O)c2)cc1 (stereo not drawn) [Formoterol Hemifumarate] | 1.03 | 0.84 | 1.01 | 1.24 | 1.08 | 1.09
CO[C@H]1C(=O)[C@]2(C)[C@@H](OC)C[C@H]3OC[C@@]3(OC(C)=O)[C@H]2[C@H](OC(=O)c2ccccc2)[C@]2(O)C[C@H](OC(=O)[C@H](O)[C@@H](NC(=O)OC(C)(C)C)c3ccccc3)C(C)=C1C2(C)C [Cabazitaxel] | 0.94 | 0.82 | 0.79 | 1.05 | 0.69 | 0.77
Cc1ccc(NC(=O)C2(c3ccc4c(c3)OC(F)(F)O4)CC2)nc1-c1cccc(C(=O)O)c1 [VX-809 (Lumacaftor)] | 1.3 | 1.55 | 1.32 | 0.85 | 0.78 | 0.63
CO[C@H]1/C=C/O[C@@]2(C)Oc3c(C)c(O)c4c(O)c(c5c(nc6cc(C)ccn65)c4c3C2=O)NC(=O)/C(C)=C\C=C\[C@H](C)[C@H](O)[C@@H](C)[C@@H](O)[C@@H](C)[C@H](OC(C)=O)[C@@H]1C [Rifaximin] | 0.75 | 0.62 | 0.85 | 0.84 | 0.95 | 0.69
COc1cccc2c1C(=O)c1c(O)c3c(c(O)c1C2=O)C[C@@](O)(C(C)=O)C[C@@H]3O[C@H]1C[C@H](N)[C@H](O)[C@H](C)O1 [Daunorubicin HCl] | 0.97 | 0.77 | 0.75 | 0.48 | 0.53 | 0.54

Quoted from the results shown, 2 compounds:
SMILES | growth (C. auris AR-384; 1 µM) | growth (C. auris AR-384; 10 µM) | growth (C. auris AR-386; 1 µM) | growth (C. auris AR-386; 10 µM) | growth (C. auris AR-387; 1 µM) | growth (C. auris AR-387; 10 µM)
CO[C@H]1/C=C/O[C@@]2(C)Oc3c(C)c(O)c4c(O)c(c5c(nc6cc(C)ccn65)c4c3C2=O)NC(=O)/C(C)=C\C=C\[C@H](C)[C@H](O)[C@@H](C)[C@@H](O)[C@@H](C)[C@H](OC(C)=O)[C@@H]1C [Rifaximin] | 0.75 | 0.62 | 0.85 | 0.84 | 0.95 | 0.69
COc1cccc2c1C(=O)c1c(O)c3c(c(O)c1C2=O)C[C@@](O)(C(C)=O)C[C@@H]3O[C@H]1C[C@H](N)[C@H](O)[C@H](C)O1 [Daunorubicin HCl] | 0.97 | 0.77 | 0.75 | 0.48 | 0.53 | 0.54

Carrying on.

SMILES | growth (C. auris AR-384; 1 µM) | growth (C. auris AR-384; 10 µM) | growth (C. auris AR-386; 1 µM) | growth (C. auris AR-386; 10 µM) | growth (C. auris AR-387; 1 µM) | growth (C. auris AR-387; 10 µM)
O=C(O)/C=C/c1ccc(Cn2ccnc2)cc1 [Ozagrel HCl] | 1.26 | 1.44 | 1.09 | 1.37 | 1.22 | 1.08
COc1ccc(CNc2nc(N3CCC[C@H]3CO)ncc2C(=O)NCc2ncccn2)cc1Cl [Avanafil] | 0.97 | 0.77 | 0.8 | 0.51 | 0.82 | 1.12
C1CNCCN1 [Piperazine] | 1.29 | 1.13 | 0.88 | 1.19 | 0.83 | 0.82
CN1CCCC(n2nc(Cc3ccc(Cl)cc3)c3ccccc3c2=O)CC1 (stereo not drawn) [Azelastine HCl] | 0.99 | 0.95 | 1.04 | 1.2 | 1.07 | 1.13
CC(C)(C)NC[C@H](O)COc1nsnc1N1CCOCC1 [Timolol Maleate] | 0.89 | 1.06 | 1.16 | 0.92 | 0.95 | 1
CCC1=C(C)CN(C(=O)NCCc2ccc(S(=O)(=O)NC(=O)N[C@H]3CC[C@H](C)CC3)cc2)C1=O [Glimepiride] | 1.24 | 1.41 | 1.51 | 1.11 | 1.41 | 1.38
O=c1oc2ccccc2c(O)c1Cc1c(O)c2ccccc2oc1=O [Dicoumarol] | 0.78 | 0.71 | 0.86 | 1 | 0.77 | 0.67
Cc1nnc(C(C)C)n1C1C[C@H]2CC[C@@H](C1)N2CC[C@H](NC(=O)C1CCC(F)(F)CC1)c1ccccc1 (stereo in doubt) [Maraviroc] | 0.98 | 0.85 | 0.87 | 1.06 | 0.73 | 0.94
Cc1ccc(C(=O)c2cc(O)c(O)c([N+](=O)[O-])c2)cc1 [Tolcapone] | 0.99 | 0.52 | 0.85 | 0.87 | 0.7 | 0.95
CC[C@@H]1C(=O)N(C)c2cnc(Nc3ccc(C(=O)N[C@H]4CC[C@H](N5CCN(CC6CC6)CC5)CC4)cc3OC)nc2N1C(C)C [Volasertib (BI 6727)] | 0.78 | 0.87 | 0.92 | 0.74 | 1.04 | 1
CCOC(=O)c1ccc(N)cc1 [Benzocaine hydrochloride] | 0.77 | 0.64 | 0.83 | 0.97 | 0.67 | 0.85
COc1c2occc2cc2ccc(=O)oc12 [Methoxsalen] | 0.86 | 0.59 | 1.04 | 0.96 | 0.82 | 1.06
N#Cc1cc(-c2n[nH]c(-c3ccncc3)n2)ccn1 [Topiroxostat] | 1.29 | 1.2 | 0.94 | 0.99 | 1 | 0.92
CC(C)C[C@H](NC(=O)[C@@H](Cc1cccc2ccccc12)NC(=O)[C@H](Cc1ccc(O)cc1)NC(=O)[C@H](CO)NC(=O)[C@H](Cc1c[nH]c2ccccc12)NC(=O)[C@H](Cc1cnc[nH]1)NC(=O)[C@@H]1CCC(=O)N1)C(=O)N[C@@H](CCCNC(=N)N)C(=O)N1CCC[C@H]1C(=O)NCC(N)=O [Nafarelin Acetate] | 0.72 | 0.83 | 0.85 | 0.74 | 0.87 | 0.72
O=C1N=C(O)NC1(c1ccccc1)c1ccccc1 [Phenytoin Sodium] | 0.59 | 0.73 | 0.7 | 0.73 | 0.82 | 0.99
CC1COc2c(N3CCN(C)CC3)c(F)cc3c(=O)c(C(=O)O)cn1c23 (stereo not drawn) [Ofloxacin] | 0.75 | 0.82 | 1.08 | 1.1 | 0.78 | 0.84
CC(C)NCC(O)c1ccc(NS(C)(=O)=O)cc1 (stereo not drawn) [Sotalol HCl] | 0.76 | 0.76 | 0.58 | 0.77 | 0.94 | 0.72
Nc1nc(O)c2ncn(CCC(CO)CO)c2n1 [Penciclovir] | 0.98 | 0.94 | 1.05 | 1.41 | 1.13 | 0.9
C[C@]12C=CC(=O)C=C1CC[C@@H]1[C@@H]2[C@@H](O)C[C@@]2(C)[C@H]1CC[C@]2(O)C(=O)CO [Prednisolone] | 0.49 | 0.56 | 0.69 | 0.88 | 0.76 | 0.76
